Experimental data from PubChem BioAssay AID493014 (National Center for Advancing Translational Sciences (NCATS), 2011).
The whole screen tested about 340,000 compounds, of which about 170 (0.05%) were called active. Inconclusive results, whose numbers are uncertain, are shown with a selection of clear calls. Calls follow the shape of the dose curve; as a rule, active = well fitted inhibition curve with a large enough effect in the signal ratio, with a control signal flat (not every such curve was filed as active); inconclusive = small, poorly fitted or top-dose-only effect, or effect the other way, or a change in a side signal; inactive = flat fitted curve, though single readings scatter; the % refers to the signal ratio. Potencies beside an inconclusive call are fits to weak or partial responses and may not hold up. Peptide text beside a SMILES is read from it. * marks the point of attachment. Cbz = O=C(OCc1ccccc1)*

assay: qHTS Assay to Find Inhibitors of Chronic Active B-Cell Receptor Signaling; conditions: ABC-DLBCL IkBa-CBG/CBR reporter, luminescence ratio (green luciferase fused to IkBa over red control in TMD8 lymphoma cells), 4 h; activity change, negative = inhibition: at 46.1 µM (top of the series) unless noted;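 as to activity change, negative = inhibition: plate controls were basal doxycycline-induced cells for no effect and cells given 10 µM MG132 for full effect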
How it was run: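 TMD8 ABC-DLBCL cells carrying doxycycline-inducible green luciferase fused to IkappaBalpha plus unfused red luciferase were exposed to compounds (up to 46 uM) for 4 hrs at 37C. Activity came from the overlap-corrected green/red luminescence ratio.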
Potency is read from the fitted curve at half-maximal effect.

Structure (SMILES)	activity change, negative = inhibition	Potency
COc1cccc(C(=O)N2CCN(Cc3ccccc3Br)CC2)c1	inactive	–
NNC(=O)c1ccc(COc2cccc3ccccc23)o1	–	inconclusive: 4.47 µM [falling, full curve]
CN(/N=C/c1c[nH]c2ccccc12)c1cnn(-c2ccc(F)c(Cl)c2)c(=O)c1Cl	inconclusive: -90.8%	–
Cc1sc(NC(=O)CSc2nnc(-c3ccc(F)cc3)o2)c(C#N)c1C	inconclusive: 1.89%	–
O=C(Nc1ccc(F)cc1)c1sccc1SCc1cccc(C(F)(F)F)c1	inconclusive: 5.7%	–
O=C(CCN1C(=O)C2C3C=CC(C3)C2C1=O)NCc1cccnc1 (configuration not stated)	inconclusive: 3.7%	–
Cc1ccc(S(=O)(=O)NCCCNS(=O)(=O)c2ccccc2[N+](=O)[O-])cc1	inactive	–
O=C(CN1CCOC1=O)N1CCCC(Nc2ccc(F)c(F)c2)C1 (configuration not stated)	inconclusive: -0.862%	–
CSc1ccc(Cl)c(C(=O)Nc2ccc(N3CCOCC3)cc2)c1	–	inconclusive: 20 µM [falling, single point]
O=C(NNC(=O)c1ncc(Cl)c(Cl)c1Cl)c1ccc(F)cc1	inconclusive: -21.3%	–
C/C(=N/Nc1ccc(C(=O)O)cc1)c1ccc(O)c(O)c1O	–	inconclusive: 6.51 µM [rising, single point]
N#C/C(=C\c1c(N2CCN(Cc3ccccc3)CC2)nc2ccccn2c1=O)S(=O)(=O)c1ccccc1	–	inconclusive: 6.31 µM [rising, partial curve, poor fit]
Cc1[nH]n(-c2ccc([N+](=O)[O-])cc2)c(=O)c1C=NCCN1CCN(C(=O)C(C)C)CC1	–	inconclusive: 3.55 µM [falling, full curve]
CCCCCOc1ccc(CN2CCOCC2)cc1Cl	inconclusive: 14%	–
COc1ccc(-c2[nH]ncc2CN2CCC(OCc3cccnc3)CC2)c(F)c1	inconclusive: -7.86%	–
COc1cc(/C=C2/C(=O)ON=C2C)ccc1OCc1cccc(F)c1	–	inconclusive: 14.1 µM [falling, partial curve, poor fit]
COc1ccc(CNCC(O)(c2ccccc2)c2ccccc2)cc1	inconclusive: -11.4%	–
COC(=O)c1cccc(NC(=O)/C=C/c2ccc3c(c2)OCO3)c1	–	inconclusive: 20.6 µM [falling, partial curve, poor fit]
Cc1ccccc1OCC(=O)Nc1ccncc1	inactive	–
COc1ccc(S(=O)(=O)N2CCc3ccccc32)cc1C(=O)NC1(C)CCS(=O)(=O)C1 (configuration not stated)	inconclusive: 0.842%	–
COc1ccccc1CCNC(=O)c1ccc(OC)c(OC2CCN(C(C)C)CC2)c1	inconclusive: -15.9%	–

Structure (SMILES)	activity change, negative = inhibition	Potency
CC(=O)c1cc(O)c2ccccc2c1O	–	inconclusive: 0.708 µM [falling, full curve, poor fit]
O=C(COc1ccc(S(=O)(=O)N2CCCC2)cc1Cl)NC1CCCC1	inconclusive: -20.2%	–
COc1ccc(NC(=O)CCOc2ccccc2)cc1	inconclusive: 6.08%	–
CCc1cc(=O)oc2cc(OCC(=O)N3CCC(C(=O)O)CC3)ccc12	–	inconclusive: 0.398 µM [falling, full curve, poor fit]
O=C(Nc1cnn(Cc2ccc(Cl)c(Cl)c2)c1)C12CC3CC(CC(C3)C1)C2	inactive	–
Cc1cccc[n+]1CC(=O)/C=C1\N(C)c2ccccc2C1(C)C	inactive	–
O=C(O)c1cccc(S(=O)(=O)Nc2ccc(OCc3ccccc3)cc2)c1	inconclusive: -13.6%	–
O=C1CN(C(=O)c2ccccc2)C(c2ccccc2)c2cc(Cl)ccc2N1 (configuration not stated)	inconclusive: -4.52%	–
CSc1ccccc1NC(=O)CN(C)C(=O)C1CC(=O)N(C(C)c2ccccc2)C1 (configuration not stated)	inactive	–
C=CCSc1nsc(NC(=O)Nc2cccc(C(C)=O)c2)n1	–	inconclusive: 31.6 µM [falling, single point]
CC1CC(C)CN(C(=O)c2cc3cc(Br)cc(Br)c3o2)C1 (configuration not stated)	inconclusive: 8.44%	–
COc1ccc2c(c1)OC(c1ccccc1)(C(F)(F)F)NC2=O (configuration not stated)	inconclusive: 7.76%	–
O=C(COC(=O)c1cc(=O)c2ccccc2o1)NCC1CCCCC1	inactive	–
O=C(Nc1nccs1)c1cc2cc(Cl)ccc2oc1=O	inconclusive: 12.8%	–
Cc1ccccc1S(=O)(=O)Nc1nc2ccccc2nc1NCCO	inconclusive: -18.4%	–
CC(CCc1ccccc1)N(C)CC(O)c1cccc([N+](=O)[O-])c1 (configuration not stated)	inactive	–
CCN(c1ccccc1)S(=O)(=O)c1ccc(OC)c(NC(=O)c2cc(F)c(F)c(F)c2F)c1	inactive	–
COc1cc(/C=C/c2ccc3cccc(OC)c3n2)c(O)c([N+](=O)[O-])c1	–	inconclusive: 3.98 µM [falling, partial curve]
CC(=O)Nc1ccc(NC(=O)Cc2ccc(F)cc2)cc1	inconclusive: 0.406%	–
CCn1nnnc1Oc1ccc(Cl)cc1	inconclusive: 12%	–
Cc1cc(C)c(NC(=O)CSc2nc3ccc(NC(=O)CSc4nnnn4-c4ccccc4)cc3s2)c(C)c1	inconclusive: 2.56%	–

Structure (SMILES)	activity change, negative = inhibition	Potency
COc1ccc(C(=O)NCCc2c[nH]c3ccccc23)cc1[N+](=O)[O-]	inconclusive: -20.9%	–
N/C(=N\OC(=O)c1cccc(Br)c1)c1ccccc1	inconclusive: 8.01%	–
O=C(O)CCCC(=O)Nc1cccc2cccnc12	–	inconclusive: 2.51 µM [rising, full curve]
Cc1cc(C(=O)CSc2nnc(-c3ccco3)o2)c(C)n1C	inconclusive: 0.396%	–
O=C(CN1C(=O)c2ccccc2C1=O)NN1C(=O)c2ccccc2C1=O	–	inconclusive: 5.62 µM [falling, single point]
CCC(C)(C)C1CCC2(CC1)NC(=S)N(c1ccccc1)N2 (configuration not stated)	inactive	–
COc1ccccc1C(=O)NC(=O)COC(=O)C1(C)CC1(Cl)Cl (configuration not stated)	inconclusive: 17.9%	–
CCCSc1nc(N2CCCC2)c2c(c1C#N)CC(C)(C)OC2	inconclusive: 5.23%	–
Cc1ccc([N+](=O)[O-])cc1S(=O)(=O)Nc1cccc(S(=O)(=O)NC2=NCCC2)c1	inactive	–
O=S(=O)(c1ccccc1Br)N(Cc1ccccc1)CC(O)COCc1ccccc1 (configuration not stated)	–	inconclusive: 32.6 µM [falling, partial curve, poor fit]
O=C(NC1CCCCCCC1)C1CCN(c2nc3ccccc3o2)CC1	inconclusive: -1.65%	–
CN1CCN(C(c2ccc(F)cc2)c2sc3nc(-c4ccco4)nn3c2O)CC1 (configuration not stated)	inactive	–
CC(C)n1nc(C(=O)Nc2ccc(-n3cnnn3)cc2)c2ccccc2c1=O	inconclusive: 8.27%	–
O=C(CS(=O)(=O)c1ccccc1)Nc1ncc([N+](=O)[O-])s1	–	inconclusive: 25.1 µM [falling, partial curve]
O=C(COC(=O)c1ccc(O)cc1)NCCc1c[nH]c2ccccc12	inconclusive: -3.47%	–
COC(=O)C(C)NC(=O)C1CCCN1C(=O)CNC(=O)OCc1ccccc1 (stereo not drawn) (Cbz-Gly-Pro-Ala-OMe; configuration not given here)	inconclusive: 11%	–
Oc1ccc2ccccc2c1N=Nc1nccs1	inconclusive: 7.58%	–
CCCCNC(=S)N1CCN(c2ccc(C(C)=O)cc2)CC1	inactive	–
O=Cc1cc2cc3c(cc2nc1Cl)OCCO3	inactive	–
CCOC(=O)c1cnn(-c2ccccc2)c1-n1cccc1C(=O)C(=O)Nc1ccccc1	inconclusive: -20.3%	–
COc1cccc(C=Nc2ccccc2C#N)c1O	inconclusive: 2.57%	–

Structure (SMILES)	activity change, negative = inhibition	Potency
CCc1cccc(C)c1NC(=O)COC(=O)c1cc([N+](=O)[O-])ccc1N1CCOCC1	inconclusive: 3.55%	–
COc1ccc(NC(=O)Cn2nnc(C(=O)NCCc3ccc(OC)c(OC)c3)c2N)c(OC)c1	inconclusive: -8.68%	–
CCn1nc(NS(=O)(=O)c2ccccc2)c2cc3ccc(C)cc3nc21	inconclusive: 3.84%	–
N#CC(c1ccccc1)N(CCCCl)C(=O)c1ccc(Br)cc1 (configuration not stated)	inconclusive: 1.2%	–
CCc1ccccc1Nc1nn2c(=O)c3ccc(C(=O)NCc4cccs4)cc3nc2s1	–	inconclusive: 5.62 µM [falling, single point]
COc1ccc(-c2noc(CSc3nc4ccccc4c(=O)n3-c3ccccc3)n2)cc1	inconclusive: -3.23%	–
Cc1ccc2[nH]c3c(c2c1)CCCC3=O	–	inconclusive: 23.1 µM [falling, partial curve, poor fit]
Cc1cccc(-c2cnn(-c3ccccc3)c2N)c1	–	inconclusive: 28.2 µM [falling, single point]
O=C(CSc1cccc[n+]1[O-])CSc1cccc[n+]1[O-]	inconclusive: -70.6% [cytotoxic]	–
Cc1cccc(Cn2ncc(Cl)c(Cl)c2=O)c1	inconclusive: 11.4%	–
CCCC(=O)N1CCN(c2nc3ccccc3s2)CC1	inconclusive: 13.8%	–
Cc1ccc(NC(=O)c2ccco2)c(NC(=O)COc2ccccc2)c1	inactive	–
Cc1cc(C)c(-c2csc(NC(=O)/C=C/c3cccs3)n2)c(C)c1	inconclusive: 21.9%	–
O=C(Nc1ccc(NC(=O)c2ccc3c(c2)OCCO3)cc1)c1ccccc1	inconclusive: -10.3%	–
CC(C)(C)C1CC=C2C(C#N)=C(N)C(C#N)(C#N)C(c3cccs3)C2C1 (configuration not stated)	inactive	–
CC(C)c1nc2cc(C(=O)N(C)C3CCOCC3)ccc2o1	inconclusive: 10.1%	–
Cc1ccc(N2C(=O)C3N=NN(CC(=O)N4N=C(c5cccc6ccccc56)CC4c4ccccc4)C3C2=O)cc1 (configuration not stated)	inconclusive: 14.7%	–
Cc1ccc(S(=O)(=O)c2cc3c(=O)n4ccccc4nc3n(C)c2=N)cc1	inconclusive: -0.571%	–
Cc1ccc(S(=O)(=O)N(C)CCCC(=O)Nc2cccc3ccccc23)cc1	inconclusive: -10.9%	–

Single values from above:
Entry of `O=C(Nc1ccc(NC(=O)c2ccc3c(c2)OCCO3)cc1)c1ccccc1` under activity change, negative = inhibition: inconclusive: -10.3%
Entry of `COC(=O)c1cccc(NC(=O)/C=C/c2ccc3c(c2)OCO3)c1` under Potency: inconclusive: 20.6 µM [falling, partial curve, poor fit]
Entry of `C=CCSc1nsc(NC(=O)Nc2cccc(C(C)=O)c2)n1` under Potency: inconclusive: 31.6 µM [falling, single point]
